Reference: PubChem BioAssay AID540276 (National Center for Advancing Translational Sciences (NCATS), 2011)
Several values for one entry are separate records, joined by “and”; a condition that tells them apart may be missing. Equal values may be shown once. About 5,400 (1.8%) of roughly 300,000 compounds were called active. Inconclusive means that the source gave no clear call. Such entries were picked first, then a sample of the others. The call rests on the fitted dose curve; tested in HEK293 cells. Where the call is inconclusive, the potency comes from a doubtful curve fit.

Assay: qHTS for inhibitors of binding or entry into cells for Marburg Virus
Settings: Marburg virus pseudotyped entry inhibition, cell reporter; series mostly up to 37.8 µM
Potency means the concentration at half of the fitted maximal effect.

SMILES	Potency
O=C(Nc1ccc(N2CCN(C(=O)c3ccc(Cl)cc3)CC2)cc1)c1ccc(Br)o1	inconclusive: 20 µM [inhibitor, partial curve, poor fit]
Cn1cccc1/C=C1\CCc2ccccc2C1=O	inconclusive: 2.51 µM [inhibitor, partial curve, poor fit]
C=CCOC(=O)C1=C(C)OC(N)=C(C(=O)OCC)C12C(=O)N(CC(N)=O)c1ccccc12 (centres undefined)	inactive
COC(=O)c1c(C(=O)OC)c2c3ccccc3cc(C3CC3)n2c1C(=O)OC	inactive
O=C(Nc1ccccc1NC(=O)C1CCCO1)c1ccco1 (centres undefined)	inconclusive: 3.55 µM [activator, single point]
COCCC1CCCCN1C(=O)c1cc(COc2cccc(C(C)=O)c2)on1 (centres undefined)	inactive
COc1ccc(CN2COc3ccc4c(-c5ccc(OC)cc5)cc(=O)oc4c3C2)cc1	inactive
COc1ccccc1NC(=O)N1CCN(c2ccnc3cc(Cl)ccc23)CC1	inconclusive: 10 µM [inhibitor, partial curve]
CCN(CC(=O)Nc1cc(C)on1)CC(=O)Nc1ccccc1C(F)(F)F	inactive
Cc1cc(NC(=O)CCOc2ccccc2)no1	inconclusive: 15.8 µM [activator, partial curve, poor fit]
CNC(=S)/N=C/NOCc1c(Cl)cccc1Cl	inconclusive: 6.31 µM [activator, partial curve, poor fit]
Cc1ccc(N(CC(=O)N2CCN(c3ccc(Cl)cc3)CC2)S(=O)(=O)c2c(C)noc2C)cc1	inactive
O=C(NC(=S)NC1CCCC1)c1ccccc1	inconclusive: 2.24 µM [activator, full curve, poor fit]
COc1ccc(C(C)=O)cc1COC(=O)c1ccc(N)c([N+](=O)[O-])c1	inconclusive: 35.5 µM [inhibitor, single point]
Cc1c(NC(=O)C(C)OC(=O)c2ccccc2O)c(=O)n(-c2ccccc2)n1C (centres undefined)	inactive
c1ccc2c(c1)ncn2CCCOc1ccc2c(c1)CCC2	inconclusive: 6.51 µM [activator, single point]
CC1CN(c2nc3ccccc3cc2-c2ccccc2)CC(C)O1 (centres undefined)	inconclusive: 2 µM [inhibitor, partial curve, poor fit]
Cc1cccc(NC(=O)c2cccs2)n1	inactive
O=C(Nc1c(-c2ccccc2)nc2ccccn12)c1ccc(Br)cc1	inconclusive: 4.47 µM [inhibitor, single point]
CCN1CCN(C(=O)/C=C/c2ccc(C(C)C)cc2)CC1	inconclusive: 1.41 µM [inhibitor, partial curve, poor fit]
CN1CCN(c2ccc(NC(=O)COc3cccc4ccccc34)cc2)CC1	inconclusive: 35.5 µM [inhibitor, single point]
CC(C)(C)c1csc(NC2=NS(=O)(=O)c3ccccc32)n1	inconclusive: 32.6 µM [inhibitor, single point]

Fetched by compound from above (2):
SMILES	Potency
Cn1cccc1/C=C1\CCc2ccccc2C1=O	inconclusive: 2.51 µM [inhibitor, partial curve, poor fit]
c1ccc2c(c1)ncn2CCCOc1ccc2c(c1)CCC2	inconclusive: 6.51 µM [activator, single point]

More compounds.

SMILES	Potency
CCOC(=O)C1CCCN(C(=O)c2cccc(S(=O)(=O)N(C)c3c(C)n(C)n(-c4ccccc4)c3=O)c2)C1 (centres undefined)	inactive
O=C1CC(C(=O)Nc2ccc(Cl)c(Cl)c2)S/C(=N\N=C\c2ccco2)N1 (centres undefined)	inconclusive: 0.794 µM [inhibitor, single point]
COc1ccc(/C=N/Nc2ncc(C(F)(F)F)cc2Cl)c(OC)c1OC	inconclusive: 2.24 µM [activator, partial curve, poor fit]
COc1ccc(S(=O)(=O)N(C)CC(=O)NC2CC2)cc1OC	inactive
COc1cc(SC#N)ccc1N=Cc1c(C)[nH]n(-c2ccc(C)cc2)c1=O	inconclusive: 28.2 µM [inhibitor, single point]
CCOc1ccccc1Nc1ncccc1C(=O)O	inconclusive: 0.116 µM [inhibitor, full curve]
CCC(=O)NCCc1nc2cc(NC(=O)c3ccc(OC)cc3)ccc2n1C	inactive
O=C(Nc1nnc(COc2ccc(Cl)cc2)s1)c1cccs1	inactive
Cc1[nH]c2ccccc2c1/C=N/NC(=O)c1cc(-c2ccccc2)n[nH]1	inconclusive: 10 µM [inhibitor, partial curve, poor fit]
CCCN(C(=O)c1cccc(S(=O)(=O)N2CCN(C)CC2)c1)c1c(N)n(Cc2ccccc2)c(=O)[nH]c1=O	inconclusive: 5.62 µM [activator, single point]
Cc1cccc(Oc2ccc(Cl)cc2N)c1	inconclusive: 1.12 µM [activator, partial curve, poor fit]
CC1CCN(c2nnc(-c3ccccc3)c3ccccc23)CC1	inconclusive: 35.5 µM [inhibitor, partial curve, poor fit]
NCCCNCCCCNCCCN	inactive and inconclusive: 25.1 µM [inhibitor, single point]
COc1ccc(Nc2cc(Nc3cc(OC)c(OC)c(OC)c3)ncn2)cc1	active: 15.8 µM
NS(=O)(=O)c1ccc(N/N=C2/CCCCC2C2CCCCC2)c([N+](=O)[O-])c1 (centres undefined)	inconclusive: 25.9 µM [inhibitor, single point]
O=C(N/N=C/c1ccc(-c2ccccc2C(=O)O)o1)c1cccs1	inconclusive: 35.5 µM [activator, single point]
O=C1/C(=C\c2cccc(O)c2O)SC(=S)N1Cc1ccccc1	inconclusive: 31.6 µM [inhibitor, partial curve, poor fit]
COC(=O)CSc1nnc2n1C(C)(C)Cc1ccccc1-2	inactive
CCc1ccc(NC(=O)c2noc3c2CCc2ccccc2-3)cc1	inconclusive: 11.2 µM [activator, single point]
CCOC(=O)c1cc(C(=O)OCC)cc(-n2c(C)cc(C(=O)CN3CCOCC3)c2C)c1	inconclusive: 0.631 µM [inhibitor, partial curve, poor fit]
O=C1C(C=Nc2ccc(F)cc2)=C(O)c2ccccc21	inactive
O=C(NCCCN1CCOCC1)c1sc2cc(F)ccc2c1Cl	inconclusive: 10 µM [activator, partial curve]
